Source: publication doi:10.1101/2020.07.12.199869
Results are given in words; binding and its absence hold for the method and conditions named. Binding seen in cells or lysates may run through a third protein.

The chains behind the UniProt entries cited, without tags or fusion partners.
UniProt Q9WVE8: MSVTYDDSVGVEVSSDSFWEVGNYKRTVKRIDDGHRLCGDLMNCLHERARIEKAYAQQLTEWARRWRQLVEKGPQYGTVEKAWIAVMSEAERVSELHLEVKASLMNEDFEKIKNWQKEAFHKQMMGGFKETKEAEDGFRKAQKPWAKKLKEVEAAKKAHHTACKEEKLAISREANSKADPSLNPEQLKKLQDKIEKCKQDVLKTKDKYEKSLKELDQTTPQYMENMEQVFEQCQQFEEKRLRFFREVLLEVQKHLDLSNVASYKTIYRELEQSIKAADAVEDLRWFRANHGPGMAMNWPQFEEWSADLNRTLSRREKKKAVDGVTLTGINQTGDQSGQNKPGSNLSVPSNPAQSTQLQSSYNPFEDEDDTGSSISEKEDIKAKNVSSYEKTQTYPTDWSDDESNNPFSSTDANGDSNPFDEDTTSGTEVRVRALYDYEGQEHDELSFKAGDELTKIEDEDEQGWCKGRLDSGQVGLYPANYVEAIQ

Biological target: T1, EEA-1 (mouse (endogenous in bEnd3)) (UniProt Q8BL66)
T1 sequence: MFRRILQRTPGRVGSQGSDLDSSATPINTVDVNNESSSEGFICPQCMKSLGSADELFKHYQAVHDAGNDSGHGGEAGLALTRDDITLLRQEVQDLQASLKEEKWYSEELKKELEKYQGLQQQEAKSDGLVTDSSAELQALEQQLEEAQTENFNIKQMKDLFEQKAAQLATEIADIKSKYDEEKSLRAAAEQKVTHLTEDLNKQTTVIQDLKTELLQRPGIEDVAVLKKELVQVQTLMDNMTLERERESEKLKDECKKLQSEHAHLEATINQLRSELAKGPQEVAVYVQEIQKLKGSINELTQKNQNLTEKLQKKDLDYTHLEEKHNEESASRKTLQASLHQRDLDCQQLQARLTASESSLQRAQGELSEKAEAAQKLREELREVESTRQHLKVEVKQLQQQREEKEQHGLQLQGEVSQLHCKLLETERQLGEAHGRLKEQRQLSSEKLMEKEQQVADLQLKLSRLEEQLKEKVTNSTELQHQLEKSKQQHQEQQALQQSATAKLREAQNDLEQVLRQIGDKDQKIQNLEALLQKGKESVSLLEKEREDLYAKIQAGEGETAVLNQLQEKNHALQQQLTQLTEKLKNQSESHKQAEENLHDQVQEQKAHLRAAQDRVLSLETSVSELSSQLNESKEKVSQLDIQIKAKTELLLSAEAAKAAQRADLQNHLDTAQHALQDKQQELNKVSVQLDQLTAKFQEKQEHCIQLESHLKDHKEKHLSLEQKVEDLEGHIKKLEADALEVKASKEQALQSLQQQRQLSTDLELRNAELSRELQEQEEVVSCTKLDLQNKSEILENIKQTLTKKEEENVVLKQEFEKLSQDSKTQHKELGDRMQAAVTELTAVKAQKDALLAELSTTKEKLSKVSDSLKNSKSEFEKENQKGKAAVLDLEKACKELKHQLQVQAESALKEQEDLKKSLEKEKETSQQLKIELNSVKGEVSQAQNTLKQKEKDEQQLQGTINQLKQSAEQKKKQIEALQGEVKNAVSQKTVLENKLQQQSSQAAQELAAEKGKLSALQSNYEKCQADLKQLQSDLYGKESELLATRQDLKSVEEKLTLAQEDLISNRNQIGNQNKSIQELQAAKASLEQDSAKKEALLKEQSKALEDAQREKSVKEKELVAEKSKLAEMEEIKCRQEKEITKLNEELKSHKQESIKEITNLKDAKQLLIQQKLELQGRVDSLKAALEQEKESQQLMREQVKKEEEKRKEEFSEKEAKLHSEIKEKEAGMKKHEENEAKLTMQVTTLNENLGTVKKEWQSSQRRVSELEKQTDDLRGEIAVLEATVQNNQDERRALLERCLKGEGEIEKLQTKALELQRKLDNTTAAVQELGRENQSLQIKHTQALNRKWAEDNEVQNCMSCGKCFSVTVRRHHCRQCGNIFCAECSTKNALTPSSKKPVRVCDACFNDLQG
Assay: proximity ligation

## syndapin-2 (from UniProt Q9WVE8 1-486)
  binding: no binding (tested: < 20 dots per cell)
